Source: PubChem BioAssay AID2685 (National Center for Advancing Translational Sciences (NCATS), 2010)
The list shows a part of the results. Shown are side measurements of this screen, not its main read-out; they come without a call. Compounds called inactive in the main read-out are mostly missing here. The note in brackets gives the kind of curve behind each potency; many fits are weak.

Experiment: qHTS Assay for Lipid Storage Modulators in Drosophila S3 Cells;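 for cell number change: cells counted by Cell Tracker Red CMTPX staining in the red channel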
Conditions: BODIPY lipid droplet fluorescence, 18-24 h; for cell number change: measured here: cell count max response, cells fed with added oleic acid
Summary of the method: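 Laser-scanning cytometry quantifies lipid droplet accumulation (500–530 nm total intensity; droplet/cell object ratio) in oleic acid-fed (400 uM added) Drosophila S3 cells treated with a concentration series. 20 uM Triacsin C defined 100% inhibition.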

[1] = measured here: lipid fluorescence (Fed channel) AC50, cells fed with added oleic acid
[2] = measured here: cell number channel AC50, cells fed with added oleic acid

| SMILES | cell number change | AC50 [1] | AC50 [2] |
| --- | --- | --- | --- |
| CCN1CCN(S(=O)(=O)c2ccc(Cl)c(C(=O)Nc3nnc(C)s3)c2)CC1 | -9.64% |  |  |
| CN=C1SC(CC(=O)Nc2cccc(Cl)c2Cl)C(=O)N1C (centres undefined) | 2.93% |  |  |
| CCOc1ccccc1N(CC(=O)Nc1ccc(OC)c(OC)c1)S(=O)(=O)c1ccccc1 | -26.5% | 29.1 µM [falling, single point] |  |
| COc1ccc(N2CCN(C(=O)Nc3ccc(S(=O)(=O)N(C)C)cc3)CC2)cc1 | 42.8% | 18.4 µM [rising, partial curve] | 16.4 µM [rising, single point] |
| Cc1ccc(-c2n[nH]c(=O)c3ccccc23)cc1S(=O)(=O)NCC1CCCO1 (centres undefined) | 21.8% | 6.51 µM [falling, single point] |  |
| COc1ccc(Cl)cc1C(=O)NNC(=O)CSc1nnnn1C |  | 0.116 µM [rising, partial curve, poor fit] | 0.146 µM [rising, partial curve, poor fit] |
| COc1cc(C(C(=O)NC2CCCC2)N(C(=O)c2snc(C(N)=O)c2N)c2ccccc2)cc(OC)c1OC (centres undefined) | -35.5% |  | 0.651 µM [falling, partial curve, poor fit] |
| CCOC(=O)c1cc(-c2ccc(C)cc2)n(CC(=O)NCc2ccco2)c1C |  | 2.91 µM [rising, single point] |  |
| Cc1nc(-c2ccc(Cl)cc2)sc1C1(C)CC(c2ccc(C#N)cc2)=NO1 (centres undefined) | 13.3% | 5.17 µM [rising, full curve, poor fit] |  |
| Cc1cc(Br)cc(/C=N/NC(=O)c2ccc3c(c2)OCO3)c1O | -11.3% |  |  |
| CCOc1ccc(CSC(CC(=O)O)C(=O)O)cc1 (centres undefined) | 37.8% |  | 14.6 µM [rising, single point] |
| COc1ccc(CNC(=O)C2CCN(C(=O)c3ccccc3)CC2)cc1 | 6.74% | 13 µM [rising, partial curve, poor fit] |  |
| O=C(O)C1CC(c2ccccc2F)=NO1 (centres undefined) | -37.6% | 20.6 µM [falling, single point] | 3.66 µM [falling, full curve] |
| Cc1ccn2cc(-c3cccc(NC(=O)c4cccs4)c3)nc2c1 | 46% | 29.1 µM [rising, single point] | 1.64 µM [rising, partial curve] |
| CC(C)c1ccc(CN(C(=O)C2COc3ccccc3O2)C2CCS(=O)(=O)C2)cc1 (centres undefined) | -24.1% | 6.51 µM [rising, single point] |  |
| O=[N+]([O-])c1cc([N+](=O)[O-])c(Oc2ccc(Cl)c3cccnc23)cc1NN1CCCCC1 | -27.8% |  |  |
| CC(=O)OCC(OC(C)=O)C(OC(C)=O)C(OC(C)=O)C(=O)Nc1ccccc1C (centres undefined) | 12.1% |  | 6.51 µM [rising, single point] |
| O=C(CCS(=O)(=O)CCN1CCOCC1)NCNC(=O)CCS(=O)(=O)CCN1CCOCC1 | 4.62% | 25.9 µM [rising, single point] |  |
| O=C(NC1=NCCS1)c1cc(-c2cccnc2)nc2ccccc12 |  |  | 0.146 µM [rising, full curve, poor fit] |
| Oc1ccc(C[C@H]2CNCCN2CCCCC2CCCCC2)cc1 | -51.5% |  | 20.6 µM [falling, single point] |
| CN(C)CCCNC(=S)N(CCCO)Cc1cc2cc3c(cc2[nH]c1=O)OCO3 | 20.4% | 3.26 µM [rising, partial curve] |  |

Single values from the list.
`Oc1ccc(C[C@H]2CNCCN2CCCCC2CCCCC2)cc1` – cell number change: -51.5%
`Cc1cc(Br)cc(/C=N/NC(=O)c2ccc3c(c2)OCO3)c1O` – cell number change: -11.3%
`CCOC(=O)c1cc(-c2ccc(C)cc2)n(CC(=O)NCc2ccco2)c1C` – AC50 [1]: 2.91 µM [rising, single point]

Further entries:

| SMILES | cell number change | AC50 [1] | AC50 [2] |
| --- | --- | --- | --- |
| C=CCn1c(=S)[nH]c2nc3c(cc2c1=O)CCCC3 |  | 0.58 µM [rising, single point] | 0.13 µM [rising, full curve, poor fit] |
| CCCCn1c(=O)c(CCC(=O)OCC(=O)Nc2cc(Cl)ccc2OC)nc2ccccc21 | 24.2% | 5.8 µM [rising, partial curve] |  |
| O=C(Nc1ccc(Cl)cc1)N1CCC(c2nc(-c3ccccc3Cl)no2)CC1 | -67.8% |  |  |
| Nc1ccccc1-c1nnc(SCc2ccccc2Cl)[nH]c1=O | 5.31% | 3.26 µM [rising, partial curve] |  |
| [O-][n+]1c2c(nn1-c1ccccc1)/C(=N/O)CCC2 | -3.15% | 3.26 µM [falling, single point] |  |
| CCc1ccc(C(C(=O)NC2CCCC2)N(Cc2cccnc2)C(=O)c2csnn2)cc1 (centres undefined) | -12.4% | 29.1 µM [rising, single point] |  |
| COc1cc(-c2nnn(CC#N)n2)ccc1OCc1ccccc1 | -26.1% | 0.058 µM [rising, full curve, poor fit] |  |
| COc1ccccc1CNC(=O)COC(=O)c1ccccc1SCC(=O)N1CCCC1 | 17.7% | 1.3 µM [rising, partial curve] |  |
| CCCC1=NN2C(=N)/C(=C\c3ccc(OCCOc4ccc(NC(C)=O)cc4)c(OC)c3)C(=O)N=C2S1 | -6.94% |  |  |
| Cc1nc2cc(C(F)(F)F)ccc2n1C1CCN(C(=O)N2CCOCC2)CC1 | -15.2% |  |  |
| Cc1ccc(S(=O)(=O)N(CC(=O)NCc2ccncc2)Cc2ccccc2F)cc1 | 12.8% | 6.51 µM [rising, single point] |  |
| CC(=O)Nc1ccc(N2C(=O)CC(Sc3nc4ccccc4s3)C2=O)cc1 (centres undefined) | -52.8% | 29.1 µM [falling, single point] | 0.206 µM [falling, full curve] |
| CCCCNC(=O)CSc1nc2ccccc2c(=O)n1C1CCCC1 | -15.2% |  |  |
| C/C(=N\Nc1ccc(C)c(Cl)c1)c1ccncc1 | 15.7% | 0.731 µM [rising, full curve] |  |
| Cc1cc2cc(CCNC(=O)c3cccc([N+](=O)[O-])c3)c(=O)[nH]c2cc1C | 17.3% | 6.51 µM [rising, single point] |  |
| COc1ccc(NC(=O)Nc2ccc3c(c2)OCO3)c(C)c1 | -17.6% | 0.82 µM [falling, single point] |  |
| CN[C@@H]1[C@H](O)[C@H](NC)[C@H]2O[C@@]3(O)C(=O)C[C@@H](C)O[C@H]3O[C@@H]2[C@H]1O | 18.1% |  | 0.82 µM [rising, full curve, poor fit] |
| Cc1nc2ccccc2c(=O)n1NC(=O)c1cccnc1Cl | 32.3% |  |  |
| CCOc1ccc(OCC)c(NS(=O)(=O)c2ccc3c(c2)CCN3C(=O)C2CCC2)c1 | 46.9% |  | 10.3 µM [rising, single point] |
| N#Cc1cc([N+](=O)[O-])ccc1N1CCCC1 | 34.3% | 1.46 µM [rising, partial curve, poor fit] | 3.26 µM [rising, full curve, poor fit] |
| CC1CN(c2nc3ccccc3nc2C(C#N)C(=O)NC2CCCCC2)CC(C)O1 (centres undefined) |  | 6.51 µM [rising, single point] | 5.8 µM [rising, single point] |

| SMILES | cell number change | AC50 [1] | AC50 [2] |
| --- | --- | --- | --- |
| O=C(CSc1nnc2c(n1)[nH]c1ccccc12)N1CCCCC1 | -8.97% | 5.17 µM [falling, single point] |  |
| O=C1CCCC/C1=C\Nc1ccccc1C(=O)O | -22.5% | 1.46 µM [falling, full curve] |  |
| CN(C)c1cccc(C(=O)OCC(=O)Nc2ccccc2Cl)c1 | 56.7% |  |  |
| Cc1nnc(SCc2c(Cl)cccc2Cl)s1 | 176% | 0.58 µM [rising, single point] |  |
| COc1ccc(CCN2C(=O)CC(Cc3ccc(Br)cc3)C2=O)cc1OC (centres undefined) | -2.87% | 29.1 µM [rising, single point] |  |
| COc1ccc(/C=C/C(=O)NC(=S)Nc2ccc(S(N)(=O)=O)cc2)cc1OC | 14.6% |  | 0.231 µM [rising, partial curve] |
| CC1(C)CC(NC(=O)C2CCC(=O)N(C3CC3)C2)CC(C)(C)C1 (centres undefined) | 17.9% | 1.64 µM [falling, partial curve] |  |
| COc1ccc(OCCCC(=O)NCCc2nc3ccccc3[nH]2)cc1 | -40.8% |  | 2.06 µM [falling, single point] |
| CC(=O)c1ccc(S(=O)(=O)NC2CC(=O)N(c3ccc4c(c3)OCCO4)C2)cc1 (centres undefined) | 32.3% |  | 23.1 µM [rising, single point] |
| COc1c(/C=N/Nc2nc(N3CCCCC3)nc(N3CCCCC3)n2)cccc1[N+](=O)[O-] | 16% | 25.9 µM [rising, single point] |  |
| Cc1ccc2oc(=O)c3cnn(CC(=O)NCCCOC(C)C)c3c2c1 | 1.6% |  |  |
| Cc1ccc(NC(=O)c2cc(-c3cccs3)on2)cc1 | 36.4% |  | 25.9 µM [rising, single point] |
| N#CCCn1c2ccccc2c2nc3ccccc3nc21 | 6.97% | 2.59 µM [rising, partial curve] |  |
| CSc1ccc(/C=C/C(=O)OCC(=O)N2CCc3ccccc32)cc1 | -37.8% |  | 2.31 µM [falling, full curve] |
| CC(C)(C)OC(=O)N1CCC2(CC1)C(C#N)=C(N)OC1=C2C(=O)CCC1 | -26.7% |  |  |
| CN1C(=O)/C(=C/c2ccco2)SC1=Nc1cccc(C(=O)O)c1 | -22.7% | 0.326 µM [falling, full curve] |  |
| Cc1ccc(C(C)(O)CS(=O)(=O)Cc2ccccc2)cc1 (centres undefined) |  | 29.1 µM [rising, single point] |  |
| CC(CC(=O)Nc1ccc(Cl)c(S(=O)(=O)N2CCOCC2)c1)c1ccccc1 (centres undefined) | 100% |  | 7.31 µM [rising, partial curve] |
| O=c1cc(-c2ccc(O)cc2)oc2c(C3O[C@H](CO)[C@@H](O)[C@H](O)[C@H]3O)c(O)cc(O)c12 (some centres undefined) | -29.3% | 7.31 µM [falling, partial curve, poor fit] |  |
| COCCN(C)C(=O)CC1C(=O)NCCN1CC(c1ccccc1)c1ccccc1 (centres undefined) | -1.78% | 0.82 µM [falling, full curve, poor fit] |  |
